The values that follow come from publication doi:10.1101/2022.12.21.521423 (bioRxiv, 2022).

Results are given in words; binding and its absence hold for the method and conditions named. In cells and extracts the contact can be indirect. Tags and fused reporters may be left off the sequences shown.

The assay has as its target T1, LRRC37B-HA (human) (UniProt Q96QE4).
T1 sequence: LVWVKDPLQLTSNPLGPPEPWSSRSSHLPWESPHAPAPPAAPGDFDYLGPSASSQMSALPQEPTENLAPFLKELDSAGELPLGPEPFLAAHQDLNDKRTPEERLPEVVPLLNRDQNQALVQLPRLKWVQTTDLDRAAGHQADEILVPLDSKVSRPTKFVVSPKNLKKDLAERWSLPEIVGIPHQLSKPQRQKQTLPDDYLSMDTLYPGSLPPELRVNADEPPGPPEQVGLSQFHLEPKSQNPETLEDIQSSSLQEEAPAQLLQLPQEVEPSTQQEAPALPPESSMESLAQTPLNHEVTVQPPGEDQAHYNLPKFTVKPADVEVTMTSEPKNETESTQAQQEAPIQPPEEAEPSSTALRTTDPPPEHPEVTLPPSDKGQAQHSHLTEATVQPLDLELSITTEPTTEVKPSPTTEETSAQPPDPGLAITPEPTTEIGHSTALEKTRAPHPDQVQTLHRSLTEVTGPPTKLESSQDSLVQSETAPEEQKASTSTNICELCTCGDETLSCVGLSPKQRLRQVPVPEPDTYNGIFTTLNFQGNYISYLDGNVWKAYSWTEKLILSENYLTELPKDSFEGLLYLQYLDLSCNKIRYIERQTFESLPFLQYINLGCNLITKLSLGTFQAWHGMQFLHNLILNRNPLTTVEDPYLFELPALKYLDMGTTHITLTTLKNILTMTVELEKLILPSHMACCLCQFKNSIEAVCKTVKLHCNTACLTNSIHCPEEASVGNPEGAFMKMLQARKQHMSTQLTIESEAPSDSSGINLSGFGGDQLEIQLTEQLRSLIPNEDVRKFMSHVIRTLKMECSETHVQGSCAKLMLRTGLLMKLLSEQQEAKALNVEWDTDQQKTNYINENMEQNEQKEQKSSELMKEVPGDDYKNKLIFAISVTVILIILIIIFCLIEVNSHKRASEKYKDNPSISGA
Briefly: co-IP.

Take “FGF13 core domain (human (from the printed UniProt entry)) (domain or fragment)”: the binding result was “no binding”.
